Source: patent publication US20040167074A1, “Therapeutic applications of mFLINT polypeptides” (priority 1998, published 2004)

Format: in vivo, mouse
Source text: These animals are also useful in further delineating useful treatment protocols for the conditions set out above. Transgene construction. […] The 5' primer, [NT], a BglII restriction site and the 3' primer, [NT], contained an SpeI restriction enzyme site. These were used to amplify the entire FLINT and FLAG coding region. The amplified 1.1 kb fragment was ligated into the multiple cloning site of plasmid […]2 generating plasmid […] (6.7 kb). See Fox et al, Eur. J. Pharmacol. 308:195 (1996). The FLINT gene fragment was excised from […] by BglII and SpeI digestion and gel-purified. This fragment then was blunted with Klenow enzyme and ligated into the Klenow-blunted MluI site of plasmid pLIV.7, provided by John Taylor of the J. David Gladstone Institutes. See Fan et al., Proc. Nat'l Acad. Sci. 91:8724 (1994). Resultant plasmid […] also contains the apo E gene promoter/5' flanking region and an hepatic enhancer sequences called the “hepatic control region” (HCR). […] Broad tissue expression was detected in line 6494 progeny by Northern blot, RT-PCR (TaqMan), Western blot and immunohistochemical analysis and was highest in the liver and kidney. High levels of FLINT protein were detected in the circulation of line 6494 mice by ELISA assay; founder level=490 ng/ml; progeny levels ranged from 285-1360 ng/ml (n=6). No endogenous FLINT was detected by these analyses.

B1: FLINT protein: FLINT-FLAG expressed from Apo E promoter/HCR transgene in line 6494 transgenic mice (protein)
chain: VAETPTYPWRDAETGERLVCAQCPPGTFVQRPCRRDSPTTCGPCPPRHYTQFWNYLERCRYCNVLCGEREEEARACHATHNRACRCRTGFFAHAGFCLEHASCPPGAGVIAPGTPSQNTQCQPCPPGTFSASSSSSEQCQPHRNCTALGLALNVPGSSSHDTLCTSCTGFPLSTRVPGAEECERAVIDFVAFQDISIKRLQRLLQALEAPEGWGPTPRAGRAALQLKLRRRLTELLGAQDGALLVRLLQALRVARMPGLERSVRERFLPVH
modifications: glycosylated
notes: FLINT-FLAG expressed from Apo E promoter/HCR transgene in line 6494 transgenic mice
- FLINT protein level in the circulation by ELISA, founder (line 6494 founder): 490 ng/mL
- FLINT protein level in the circulation by ELISA, progeny (line 6494 progeny (n=6)): 285 to 1360 ng/mL
